# Measurements published in the supplement of paper PMC8728848.
# The other results are listed elsewhere or left out.
# How the values were obtained:
# Experiment in all cases: glycan array binding signal (z-score within array); higher = stronger binding
# Settings in all cases: glycan notation: IUPAC condensed, linker removed
# Gal(a1-3)Gal(b1-3)GlcNAc = biological target: Gal(a1-3)Gal(b1-3)GlcNAc
# Outline: (§1)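 Glycan array data were curated from 3228 arrays in the Consortium for Functional Glycomics database and kept only where the protein sequence was available. Glycan names were converted to IUPAC-condensed notation, and columns mapping to the same glycan were averaged. The binding signal is a within-array Z-score, averaged across arrays of the same protein sequence at different concentrations or buffers and across linkers. Negative Z-scores can be read as non-binding.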
# [1] = biological target: Gal(a1-3)Gal(b1-3)GlcNAc(b1-2)Man
# Outline: as §1
# [2] = biological target: Gal(a1-3)Gal(b1-3)GlcNAc(b1-2)Man(a1-3)[Gal(a1-3)Gal(b1-3)GlcNAc(b1-2)Man(a1-6)]Man(b1-4)GlcNAc(b1-4)GlcNAc
# Outline: as §1
# [3] = biological target: Gal(a1-3)Gal(b1-3)GlcNAc(b1-3)GalNAc
# Outline: as §1
# [4] = biological target: Gal(a1-3)Gal(b1-3)GlcNAc(b1-6)GalNAc
# Outline: as §1
# [5] = biological target: Gal(a1-3)Gal(b1-3)[Fuc(a1-4)]GlcNAc(b1-2)Man(a1-3)[Gal(a1-3)Gal(b1-3)[Fuc(a1-4)]GlcNAc(b1-2)Man(a1-6)]Man(b1-4)GlcNAc(b1-4)GlcNAc
# Outline: as §1
# Gal(a1-3)Gal(b1-4)Glc = biological target: Gal(a1-3)Gal(b1-4)Glc
# Outline: as §1
# Gal(a1-3)Gal(b1-4)GlcNAc = biological target: Gal(a1-3)Gal(b1-4)GlcNAc
# Outline: as §1
# [6] = biological target: Gal(a1-3)Gal(b1-4)GlcNAc(b1-2)Man
# Outline: as §1
# [7] = biological target: Gal(a1-3)Gal(b1-4)GlcNAc(b1-2)Man(a1-3)[Gal(a1-3)Gal(b1-4)GlcNAc(b1-2)Man(a1-6)]Man(b1-4)GlcNAc(b1-4)GlcNAc
# Outline: as §1
# [8] = biological target: Gal(a1-3)Gal(b1-4)GlcNAc(b1-3)GalNAc
# Outline: as §1
# [9] = biological target: Gal(a1-3)Gal(b1-4)GlcNAc(b1-6)GalNAc
# Outline: as §1
# [10] = biological target: Gal(a1-3)Gal(b1-4)[Fuc(a1-3)]GlcNAc
# Outline: as §1
# [11] = biological target: Gal(a1-3)Gal(b1-4)[Fuc(a1-3)]GlcNAc(b1-2)Man(a1-3)[Gal(a1-3)Gal(b1-4)[Fuc(a1-3)]GlcNAc(b1-2)Man(a1-6)]Man(b1-4)GlcNAc(b1-4)GlcNAc
# Outline: as §1
# Gal(a1-3)GalNAc = biological target: Gal(a1-3)GalNAc
# Outline: as §1
# [12] = biological target: Gal(a1-3)[Gal(a1-4)]Gal(b1-4)GlcNAc
# Outline: as §1
# [13] = biological target: Gal(a1-4)Gal(b1-3)GlcNAc(b1-2)Man(a1-3)[Gal(a1-4)Gal(b1-3)GlcNAc(b1-2)Man(a1-6)]Man(b1-4)GlcNAc(b1-4)GlcNAc
# Outline: as §1
# Gal(a1-4)Gal(b1-4)Glc = biological target: Gal(a1-4)Gal(b1-4)Glc
# Outline: as §1
# Gal(a1-4)Gal(b1-4)GlcNAc = biological target: Gal(a1-4)Gal(b1-4)GlcNAc
# Outline: as §1
# [14] = biological target: Gal(a1-4)Gal(b1-4)GlcNAc(b1-2)Man(a1-3)[Gal(a1-4)Gal(b1-4)GlcNAc(b1-2)Man(a1-6)]Man(b1-4)GlcNAc(b1-4)GlcNAc
# Outline: as §1
# [15] = biological target: Gal(a1-4)Gal(b1-4)GlcNAc(b1-3)Gal(b1-4)Glc
# Outline: as §1
# Gal(a1-4)GlcNAc = biological target: Gal(a1-4)GlcNAc
# Outline: as §1
# Gal(a1-6)Glc = biological target: Gal(a1-6)Glc
# Outline: as §1
# Gal(b1-2)Gal = biological target: Gal(b1-2)Gal
# Outline: as §1
# Gal(b1-3)Gal = biological target: Gal(b1-3)Gal
# Outline: as §1
# Gal(b1-3)Gal(b1-4)GlcNAc = biological target: Gal(b1-3)Gal(b1-4)GlcNAc
# Outline: as §1
# [16] = biological target: Gal(b1-3)Gal(b1-4)GlcNAc(b1-2)Man(a1-3)[Gal(b1-3)Gal(b1-4)GlcNAc(b1-2)Man(a1-6)]Man(b1-4)GlcNAc(b1-4)GlcNAc
# Outline: as §1
# Gal(b1-3)GalNAc = biological target: Gal(b1-3)GalNAc
# Outline: as §1
# [17] = biological target: Gal(b1-3)GalNAc(a1-3)[Fuc(a1-2)]Gal(b1-4)Glc
# Outline: as §1
# [18] = biological target: Gal(b1-3)GalNAc(a1-3)[Fuc(a1-2)]Gal(b1-4)GlcNAc
# Outline: as §1
# Gal(b1-3)GalNAc(b1-3)Gal = biological target: Gal(b1-3)GalNAc(b1-3)Gal
# Outline: as §1
# [19] = biological target: Gal(b1-3)GalNAc(b1-3)Gal(a1-4)Gal(b1-4)Glc
# Outline: as §1
# [20] = biological target: Gal(b1-3)GalNAc(b1-4)Gal(b1-4)Glc
# Outline: as §1
# [21] = biological target: Gal(b1-3)GalNAc(b1-4)[Neu5Ac(a2-3)]Gal(b1-4)Glc
# Outline: as §1
# Gal(b1-3)GlcNAc = biological target: Gal(b1-3)GlcNAc
# Outline: as §1
# [22] = biological target: Gal(b1-3)GlcNAc(a1-3)Gal(b1-4)GlcNAc
# Outline: as §1
# [23] = biological target: Gal(b1-3)GlcNAc(a1-6)Gal(b1-4)GlcNAc
# Outline: as §1
# Gal(b1-3)GlcNAc(b1-2)Man = biological target: Gal(b1-3)GlcNAc(b1-2)Man
# Outline: as §1
# [24] = biological target: Gal(b1-3)GlcNAc(b1-2)Man(a1-3)[Gal(b1-3)GlcNAc(b1-2)Man(a1-6)]Man(b1-4)GlcNAc(b1-4)GlcNAc
# Outline: as §1
# [25] = biological target: Gal(b1-3)GlcNAc(b1-2)Man(a1-3)[Gal(b1-3)GlcNAc(b1-2)Man(a1-6)]Man(b1-4)GlcNAc(b1-4)[Fuc(a1-6)]GlcNAc
# Outline: as §1
# [26] = biological target: Gal(b1-3)GlcNAc(b1-2)Man(a1-3)[GlcNAc(b1-4)][Gal(b1-3)GlcNAc(b1-2)Man(a1-6)]Man(b1-4)GlcNAc(b1-4)GlcNAc
# Outline: as §1
# [27] = biological target: Gal(b1-3)GlcNAc(b1-2)[Gal(b1-3)GlcNAc(b1-6)]Man(a1-6)[Gal(b1-3)GlcNAc(b1-2)Man(a1-3)]Man(b1-4)GlcNAc(b1-4)GlcNAc
# Outline: as §1
# [28] = biological target: Gal(b1-3)GlcNAc(b1-3)Gal(b1-3)GlcNAc
# Outline: as §1
# [29] = biological target: Gal(b1-3)GlcNAc(b1-3)Gal(b1-4)Glc
# Outline: as §1
# [30] = biological target: Gal(b1-3)GlcNAc(b1-3)Gal(b1-4)GlcNAc
# Outline: as §1
# [31] = biological target: Gal(b1-3)GlcNAc(b1-3)Gal(b1-4)GlcNAc(b1-2)Man(a1-3)[Gal(b1-3)GlcNAc(b1-3)Gal(b1-4)GlcNAc(b1-2)Man(a1-6)]Man(b1-4)GlcNAc(b1-4)GlcNAc
# Outline: as §1
# [32] = biological target: Gal(b1-3)GlcNAc(b1-3)Gal(b1-4)GlcNAc(b1-2)[Gal(b1-3)GlcNAc(b1-3)Gal(b1-4)GlcNAc(b1-6)]Man(a1-6)[Gal(b1-3)GlcNAc(b1-3)Gal(b1-4)GlcNAc(b1-2)Man(a1-3)]Man(b1-4)GlcNAc(b1-4)[Fuc(a1-6)]GlcNAc
# Outline: as §1
# [33] = biological target: Gal(b1-3)GlcNAc(b1-3)Gal(b1-4)GlcNAc(b1-3)Gal(b1-4)GlcNAc(b1-2)[Gal(b1-3)GlcNAc(b1-3)Gal(b1-4)GlcNAc(b1-3)Gal(b1-4)GlcNAc(b1-6)]Man(a1-6)[Gal(b1-3)GlcNAc(b1-3)Gal(b1-4)GlcNAc(b1-3)Gal(b1-4)GlcNAc(b1-2)Man(a1-3)]Man(b1-4)GlcNAc(b1-4)[Fuc(a1-6)]GlcNAc
# Outline: as §1
# [34] = biological target: Gal(b1-3)GlcNAc(b1-3)Gal(b1-4)GlcNAc(b1-6)[Gal(b1-3)GlcNAc(b1-3)]Gal(b1-4)Glc
# Outline: as §1
# [35] = biological target: Gal(b1-3)GlcNAc(b1-3)Gal(b1-4)[Fuc(a1-3)]GlcNAc
# Outline: as §1
# [36] = biological target: Gal(b1-3)GlcNAc(b1-3)Gal(b1-4)[Fuc(a1-3)]GlcNAc(b1-6)[Gal(b1-3)GlcNAc(b1-3)]Gal(b1-4)Glc
# Outline: as §1
# [37] = biological target: Gal(b1-3)GlcNAc(b1-3)GalNAc
# Outline: as §1
binder,measurement,setting,value
KISKRILTGKK [NK11 (Sus scrofa)],glycan array binding signal (z-score),Gal(a1-3)Gal(b1-3)GlcNAc,0.315
same,glycan array binding signal (z-score),[1],0.658
same,glycan array binding signal (z-score),[2],0.768
same,glycan array binding signal (z-score),[3],-0.454
same,glycan array binding signal (z-score),[4],-0.365
same,glycan array binding signal (z-score),[5],-0.06
same,glycan array binding signal (z-score),Gal(a1-3)Gal(b1-4)Glc,-0.303
same,glycan array binding signal (z-score),Gal(a1-3)Gal(b1-4)GlcNAc,-0.302
same,glycan array binding signal (z-score),[6],-0.942
same,glycan array binding signal (z-score),[7],0.586
same,glycan array binding signal (z-score),[8],-0.218
same,glycan array binding signal (z-score),[9],-0.147
same,glycan array binding signal (z-score),[10],-0.402
same,glycan array binding signal (z-score),[11],0.809
same,glycan array binding signal (z-score),Gal(a1-3)GalNAc,-0.879
same,glycan array binding signal (z-score),[12],0.293
same,glycan array binding signal (z-score),[13],0.312
same,glycan array binding signal (z-score),Gal(a1-4)Gal(b1-4)Glc,-0.486
same,glycan array binding signal (z-score),Gal(a1-4)Gal(b1-4)GlcNAc,-0.175
same,glycan array binding signal (z-score),[14],1.4
same,glycan array binding signal (z-score),[15],-0.642
same,glycan array binding signal (z-score),Gal(a1-4)GlcNAc,-0.19
same,glycan array binding signal (z-score),Gal(a1-6)Glc,-0.674
same,glycan array binding signal (z-score),Gal(b1-2)Gal,-0.415
same,glycan array binding signal (z-score),Gal(b1-3)Gal,0.729
same,glycan array binding signal (z-score),Gal(b1-3)Gal(b1-4)GlcNAc,-0.706
same,glycan array binding signal (z-score),[16],-0.129
same,glycan array binding signal (z-score),Gal(b1-3)GalNAc,-0.322
same,glycan array binding signal (z-score),[17],-0.675
same,glycan array binding signal (z-score),[18],-0.444
same,glycan array binding signal (z-score),Gal(b1-3)GalNAc(b1-3)Gal,-0.081
same,glycan array binding signal (z-score),[19],0.088
same,glycan array binding signal (z-score),[20],-0.598
same,glycan array binding signal (z-score),[21],0.499
same,glycan array binding signal (z-score),Gal(b1-3)GlcNAc,-0.818
same,glycan array binding signal (z-score),[22],1.09
same,glycan array binding signal (z-score),[23],-0.484
same,glycan array binding signal (z-score),Gal(b1-3)GlcNAc(b1-2)Man,1.06
same,glycan array binding signal (z-score),[24],0.324
same,glycan array binding signal (z-score),[25],-0.247
same,glycan array binding signal (z-score),[26],0.142
same,glycan array binding signal (z-score),[27],0.083
same,glycan array binding signal (z-score),[28],-0.639
same,glycan array binding signal (z-score),[29],-0.986
same,glycan array binding signal (z-score),[30],-1.08
same,glycan array binding signal (z-score),[31],-0.818
same,glycan array binding signal (z-score),[32],1
same,glycan array binding signal (z-score),[33],-0.607
same,glycan array binding signal (z-score),[34],0.691
same,glycan array binding signal (z-score),[35],-0.558
same,glycan array binding signal (z-score),[36],-0.485
same,glycan array binding signal (z-score),[37],-0.602

# Fetched one by one from the entries so far, 2 records:
binder,measurement,setting,value
KISKRILTGKK [NK11 (Sus scrofa)],glycan array binding signal (z-score),Gal(a1-3)Gal(b1-4)Glc,-0.303
same,glycan array binding signal (z-score),Gal(a1-4)Gal(b1-4)Glc,-0.486
